## Melanoma cell counts after drug treatment

From a melanoma drug combination screen (doi:10.1371/journal.pone.0140310); values rounded.

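The test systems are human melanoma cell lines, treated with a pair of drugs for 72 h and then stained and imaged. The read-out is cell count (nuclei) in % of the DMSO control; lower values mean stronger growth inhibition or killing. Concentrations were fixed for each drug; these are the higher of two levels. No replicate spread is given; individual values may be noisy.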 This is part of the screen, not chosen by result.

Compounds and concentrations:
dorsomorphin (2000 nM): c1cc(-c2cnn3cc(-c4ccc(OCCN5CCCCC5)cc4)cnc23)ccn1
lapatinib (4000 nM): CS(=O)(=O)CCNCc1ccc(-c2ccc3ncnc(Nc4ccc(OCc5cccc(F)c5)c(Cl)c4)c3c2)o1
SNS-032 (50 nM): CC(C)(C)c1cnc(CSc2cnc(NC(=O)C3CCNCC3)s2)o1
OSI-906 (2000 nM): C[C@]1(O)C[C@@H](c2nc(-c3ccc4ccc(-c5ccccc5)nc4c3)c3c(N)nccn32)C1
TCS401 (8330 nM): O=C(O)C(=O)Nc1sc2c(c1C(=O)O)CCNC2
nilutamide (5000 nM): CC1(C)NC(=O)N(c2ccc([N+](=O)[O-])c(C(F)(F)F)c2)C1=O
pazopanib (2000 nM): Cc1ccc(Nc2nccc(N(C)c3ccc4c(C)n(C)nc4c3)n2)cc1S(N)(=O)=O
dovitinib (500 nM): CN1CCN(c2ccc3nc(-c4c(N)c5c(F)cccc5[nH]c4=O)[nH]c3c2)CC1
OSU-03012 (5000 nM): NCC(=O)Nc1ccc(-n2nc(C(F)(F)F)cc2-c2ccc3c(ccc4ccccc43)c2)cc1
embelin (6000 nM): CCCCCCCCCCCC1=C(O)C(=O)C=C(O)C1=O
fludarabine (1000 nM): Nc1nc(F)nc2c1ncn2[C@@H]1O[C@H](CO)[C@@H](O)[C@@H]1O
LFM-A13 (10000 nM): C/C(O)=C(\C#N)C(=O)Nc1cc(Br)ccc1Br

Pair	COLO 800	C32	WM3619	COLO 792	WM451Lu	COLO 829
LFM-A13 and OSI-906	21.5	99.0	71.3	87.5	70.5	99.8
nilutamide and SNS-032	48.0	79.5	92.4	79.6	83.5	93.0
TCS401 and lapatinib	124	114	71.7	82.9	98.6	116
fludarabine and embelin	79.8	87.3	70.7	51.9	96.6	61.8
TCS401 and LFM-A13	55.7	92.5	94.5	97.9	91.6	94.8
pazopanib and dovitinib	50.4	77.0	53.8	41.3	92.1	46.6
fludarabine and OSI-906	44.9	88.8	60.9	56.9	96.8	102
fludarabine and OSU-03012	69.4	86.1	58.6	67.3	63.1	68.8
embelin and LFM-A13	74.7	95.4	101	84.3	116	74.2
TCS401 and fludarabine	115	98.0	77.7	72.2	132	128
nilutamide and dorsomorphin	60.9	77.0	60.5	82.8	71.7	95.1
LFM-A13 and dovitinib	42.0	90.0	69.2	49.1	77.8	55.7
embelin and lapatinib	88.1	95.7	52.0	64.8	96.1	68.0
OSU-03012 and dorsomorphin	55.1	53.5	61.4	56.7	92.0	75.9
fludarabine and SNS-032	105	74.4	100	63.2	74.5	95.1
dovitinib and dorsomorphin	40.0	53.6	67.7	45.9	78.4	46.8
nilutamide and fludarabine	99.5	82.0	105	61.0	72.0	76.4
embelin and dovitinib	44.5	68.8	59.8	40.1	85.6	56.3
fludarabine and pazopanib	72.8	94.0	82.5	66.0	70.1	82.6
LFM-A13 and OSU-03012	61.3	113	76.8	62.3	109	63.3
nilutamide and TCS401	65.4	82.7	65.5	105	87.7	133
fludarabine and dorsomorphin	76.3	56.9	68.6	63.9	67.8	78.2
pazopanib and lapatinib	70.0	68.0	73.0	54.8	72.0	76.3
OSU-03012 and lapatinib	12.6	30.4	9.0	31.1	57.0	45.1
OSU-03012 and embelin	54.3	80.7	2.2	71.2	83.2	57.7
pazopanib and OSI-906	47.2	98.5	101	78.0	87.3	79.6
embelin and OSI-906	42.6	106	115	83.4	91.7	75.2
pazopanib and SNS-032	60.4	69.3	83.3	66.9	78.2	87.2
SNS-032 and dovitinib	34.2	68.3	79.8	69.7	71.0	66.1
fludarabine and dovitinib	105	72.9	56.3	71.5	98.3	56.8
TCS401 and pazopanib	115	93.6	88.8	97.4	87.0	80.2
pazopanib and OSU-03012	62.2	81.7	5.0	70.3	82.6	57.2

Some entries from above, unchanged:

{"pair": "embelin and lapatinib", "COLO 800": 88.1, "C32": 95.7, "WM3619": 52.0, "COLO 792": 64.8, "WM451Lu": 96.1, "COLO 829": 68.0}
{"pair": "LFM-A13 and OSI-906", "COLO 800": 21.5, "C32": 99.0, "WM3619": 71.3, "COLO 792": 87.5, "WM451Lu": 70.5, "COLO 829": 99.8}